About 220 (0.063%) of roughly 350,000 compounds were called active. This list was built around the results that the source calls inconclusive (neither active nor inactive); the mix of calls is not that of the screen. Calls follow the shape of the dose curve; as a rule, active = well fitted activation curve with a large enough effect; inconclusive = small, poorly fitted or top-dose-only effect; inactive = no such curve, though single readings can be large or run the other way. Potencies beside an inconclusive call are fits to weak or partial responses and may not hold up.
test: qHTS for Activators of Integrin-Mediated Alleviation for Muscular Dystrophy; conditions: alpha7betagal myoblasts, beta-gal FDG fluorescence, 48 h; activation: at 38.3 µM (top of the series); also: nearly all actives have a fitted effect of over 60% in size;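 as to activation: 100% = response of the positive control SU9516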
In short: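 Alpha7betagal+/- myoblasts (passage 13) were plated 16-24 hr, then exposed to compounds (1:260 dilution of DMSO stock) for 48 hours at 37C. After MPER lysis, β-galactosidase reporter activity was read as FDG fluorescence (ex 480/em 540) after 30 minutes.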
Potency is read from the fitted curve at half-maximal effect.

SMILES | Potency | activation
O=C(Nc1ccc(Br)cc1)c1ccc(-n2cnnn2)cc1 | inconclusive: 12.6 µM [activator, single point] | 
Cc1ccccc1N1CC(C(=O)Nc2ccc(S(=O)(=O)NCC3CCCO3)cc2)CC1=O (stereo unspecified) | inconclusive: 0.501 µM [activator, partial curve, poor fit] | 
CCCCc1cc(=O)oc2cc(OCC(=O)NCc3ccccn3)ccc12 | inconclusive: 11.2 µM [activator, single point] | 
CCOC(=O)Cc1cc(=O)[nH]n(-c2ccccc2)c1=O | inconclusive: 1.12 µM [activator, partial curve, poor fit] | 
CC(C)(C)n1nnnc1C(c1cccnc1)N1CCOCC1 (stereo unspecified) | inconclusive: 14.1 µM [activator, single point] | 
Cc1ccnc(Sc2ccc([N+](=O)[O-])cc2[N+](=O)[O-])n1 |  | inactive: -68.7% [at 7.66 µM]
COc1ccc(N2CC(C(=O)Nc3nnc(C4CCCCC4)s3)CC2=O)cc1 (stereo unspecified) | inconclusive: 10 µM [activator, single point] | 
O=C(NCCCCO)c1ccc2c3c(cccc13)CC2 | inconclusive: 25.1 µM [activator, single point] | 
Cc1oc(-c2cccs2)nc1CN1CCN(C2CCCC2)C(CCO)C1 (stereo unspecified) | inconclusive: 1.78 µM [activator, partial curve, poor fit] | 
O=C(N/N=C/c1cccc([N+](=O)[O-])c1)c1cccc(Br)c1 | inactive | 
Cc1cccc(NC(=O)CNC(=O)COC(=O)CCS(=O)(=O)c2ccccc2)c1C | inactive | 
CCNC(=O)Cc1ccc(NS(=O)(=O)c2ccc(F)cc2)cc1 | inconclusive: 22.4 µM [activator, single point] | 
Nn1c(Cc2ccc(Br)cc2)n[nH]c1=S | inconclusive: 17.8 µM [activator, single point] | 
Cc1onc(-c2c(F)cccc2Cl)c1C(=O)NCc1ccccn1 | inactive | 
O=C(COC(=O)c1n[nH]c2ccccc12)Nc1ccc(Cl)cc1[N+](=O)[O-] | inconclusive: 3.16 µM [activator, single point] | 
COC(=O)COc1ccc(C(=O)Cn2c(NCCCO)nc3ccccc32)cc1 | inconclusive: 10 µM [activator, partial curve, poor fit] | 
CCOC(=O)NNC(=O)C1CCC(C)CC1 (stereo unspecified) | inconclusive: 10 µM [activator, single point] | 
O=S(=O)(NCCCO)c1ccc2c(c1)Cc1cc(S(=O)(=O)NCCCO)ccc1-2 | inactive | 
CC(=O)NC(CC(=O)Nc1ccc2c(c1)OCCO2)c1ccccc1 (stereo unspecified) | inconclusive: 5.01 µM [activator, single point] | 
COc1cccc(=O)c2c(C)n(CC(=O)c3ccccc3)c(C)c12 | inconclusive: 5.01 µM [activator, single point] | 
CS(=O)(=O)N(CC(=O)Nc1ccc(S(=O)(=O)N2CCOCC2)cc1)c1ccccc1Cl | inconclusive: 5.01 µM [activator, single point] | 
CCOc1ccc(CN(C)C(=O)c2cccnc2SC)cc1OC | inconclusive: 2.82 µM [activator, single point] | 

SMILES | Potency | activation
COc1ccc(CCNc2oc(COc3ccccc3)nc2C#N)cc1 | inconclusive: 10 µM [activator, partial curve, poor fit] | 
CCOC(=O)c1cnc2ccc(OCC)cc2c1NCc1cccnc1 | inactive | 
O=C(Nc1nc(-c2cccs2)cs1)c1cccc(S(=O)(=O)N2CCCCCC2)c1 | inactive | 
CC(C)(C)C(=O)C1=C(O)C(=O)N(Cc2ccccc2)C1c1ccccc1F (stereo unspecified) | inconclusive: 14.1 µM [activator, single point] | 
COc1ccc(NC(=O)Cn2nc(C(=O)O)c3ccccc3c2=O)cc1S(=O)(=O)N1CCCCC1 | inconclusive: 5.01 µM [activator, single point] | 
CCOc1ccccc1NC(=O)c1ccc(-n2cncn2)nc1 | inconclusive: 28.2 µM [activator, single point] | 
CC(C)c1ccc(CNc2ccc([N+](=O)[O-])cn2)cc1 | inactive | 
O=C(Cc1c(F)cccc1Cl)N/N=C/c1cccnc1 | inconclusive: 3.16 µM [activator, partial curve, poor fit] | 
COc1cc(CNc2ccc(NC(C)=O)cc2)ccc1OCc1ccccc1C | inconclusive: 1.58 µM [activator, single point] | 
O=C(Cn1c(=O)c2c(ncn2Cc2ccccc2)n(Cc2ccccc2)c1=O)N1CCc2ccccc21 | inconclusive: 6.31 µM [activator, partial curve, poor fit] | 
CCOc1cc(C(=O)NC(=S)Nn2cnnc2)cc(OCC)c1OCC | inconclusive: 11.2 µM [activator, single point] | 
CCOC(=O)c1sc(NC(=O)CC(C)c2ccccc2)nc1C (stereo unspecified) | inactive | 
N#C/C(N)=C(/C#N)N=Cc1cccc(Cl)c1 | inconclusive: 5.01 µM [activator, single point] | 
Cc1c(NC(=O)c2ccc(-c3ccccc3)cc2)cccc1C(=O)O | inconclusive: 22.4 µM [activator, single point] | 
CS(=O)(=O)N1CCC(Oc2cccc(C(=O)NCCCC3CCCC3)c2)CC1 |  | inconclusive: -16.8% [activator]
COC(=O)CCC(=O)NC(=S)Nc1cc(Cl)ccc1Cl | inactive | 
CCO[C@@H]1OC(C(=O)O)=C[C@H](c2csc3ccccc23)[C@H]1CCCO | inconclusive: 5.01 µM [activator, single point] | 
Cc1ccc(NC(=O)COC(=O)c2csc3c2CCC(C)C3)cc1S(=O)(=O)N1CCCCC1 (stereo unspecified) | inactive | 
CCC(C)NC(=O)Cn1ccc2cc(S(=O)(=O)N3CCCCCC3)ccc21 (stereo unspecified) | inconclusive: 5.01 µM [activator, partial curve, poor fit] | 
Cc1ccc(OCCNc2ccc(C(F)(F)F)cc2[N+](=O)[O-])cc1 | inconclusive: 10 µM [activator, partial curve, poor fit] | 
CC(=O)c1ccc2c3c(ccc(O)c13)CC2 | inconclusive: 28.2 µM [activator, single point] | 
COc1ccc(NCc2ccc([N+](=O)[O-])s2)cc1 | inactive | 

SMILES | Potency | activation
Cc1oc2c(CN3CCC(C)CC3)c(O)ccc2c(=O)c1-c1ccccc1 | inconclusive: 0.447 µM [activator, full curve, poor fit] | 
COCC(C)n1c(C)cc(C(=O)COC(=O)c2cc(=O)[nH]c3ccccc23)c1C (stereo unspecified) | inconclusive: 5.62 µM [activator, partial curve, poor fit] | 
O=C(Nc1ccc(OC(F)(F)F)cc1)N1CCN(c2ccnc3cc(Cl)ccc23)CC1 | inconclusive: 28.2 µM [activator, single point] | 
CCc1ccc(S(=O)(=O)Nc2nnc(N)s2)cc1 | inconclusive: 2.82 µM [activator, partial curve, poor fit] | 
COc1ccc(/C=C2\SC(=Nc3ccccc3OC)NC2=O)cc1 | inconclusive: 5.01 µM [activator, single point] | 
CCCCNS(=O)(=O)c1ccc2nc(SCC(=O)c3ccc(C#N)cc3)[nH]c2c1 | inactive | 
CCc1cccc(NC(=O)C2CCN(S(=O)(=O)c3ccc4c(c3)NC(=O)CO4)CC2)c1 | inconclusive: 28.2 µM [activator, single point] | 
CCOc1ccc(CO[C@@H]2O[C@H](CO)[C@@H](O)[C@H](O)[C@H]2NC(C)=O)cc1OC | inconclusive: 28.2 µM [activator, single point] | 
CCCn1c(=O)cc(N)n(-c2ccc(OC(F)(F)F)cc2)c1=O | inconclusive: 2.51 µM [activator, partial curve, poor fit] | 
COc1cc(-c2nn3c(Cc4ccccc4)nnc3s2)cc(OC)c1OC | inconclusive: 11.2 µM [activator, single point] | 
COc1ccc(OC)c(S(=O)(=O)NCc2cn3ccsc3n2)c1 | inconclusive: 28.2 µM [activator, single point] | 
O=C(NC1CC1)C1CCN(C2CCN(C(=O)CCOc3ccccc3)CC2)CC1 | inconclusive: 2.82 µM [activator, single point] | 
CCc1cccc(NC(=O)C2CCN(c3ncnc4sc(C)c(C)c34)CC2)c1 | inconclusive: 2.82 µM [activator, single point] | 
O=C(CCn1c(=S)oc2ccccc21)NC1CCCCC1 | inconclusive: 1.78 µM [activator, partial curve, poor fit] | 
Cc1ccc(OCC(=O)Nc2ccccc2[N+](=O)[O-])c(Br)c1 | inconclusive: 0.501 µM [activator, full curve, poor fit] | 
COc1ccc(CNC(=O)Cn2cccc2C(=O)c2ccccc2)cc1 | inactive | 
O=c1c2cc(-c3ccccc3)sc2nc2n1N=C(c1ccccc1)CS2 | inconclusive: 6.31 µM [activator, partial curve, poor fit] | 
O=C(NC1CC1)c1cccc(NC(=O)c2cn3ccccc3n2)c1 | inconclusive: 31.6 µM [activator, single point] | 
O=[N+]([O-])c1ccc(N/N=C\c2cccnc2)nc1 | inconclusive: 28.2 µM [activator, single point] | 
Cn1c(=O)c2cc3ccc(Cl)cc3nc2n(C)c1=O | inconclusive: 12.6 µM [activator, partial curve, poor fit] | 
COC(=O)c1[nH]c2cc(OC)ccc2c1NC(=O)CCN1CCCCC1 | inactive | 
Cc1sc(N(C(=O)CCc2ccccc2)c2ccc(C(=O)O)cc2)nc1-c1ccccc1 | inactive | 

Three structures already listed, sorted by number of heavy atoms, high to low:
SMILES | Potency | activation
CS(=O)(=O)N(CC(=O)Nc1ccc(S(=O)(=O)N2CCOCC2)cc1)c1ccccc1Cl | inconclusive: 5.01 µM [activator, single point] | 
COC(=O)c1[nH]c2cc(OC)ccc2c1NC(=O)CCN1CCCCC1 | inactive | 
CCNC(=O)Cc1ccc(NS(=O)(=O)c2ccc(F)cc2)cc1 | inconclusive: 22.4 µM [activator, single point] | 
